The source of these data is PubChem BioAssay AID2685 (National Center for Advancing Translational Sciences (NCATS), 2010).

The structures appear in SMILES notation. Some of the results follow. Shown are side measurements of this screen, not its main read-out; they come without a call. Most of these compounds were active or inconclusive in the main read-out, so they are no random draw. The note in brackets gives the kind of curve behind each potency; many fits are weak.

The assay in a line: qHTS Assay for Lipid Storage Modulators in Drosophila S3 Cells.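 As to cell number change: cells counted by Cell Tracker Red CMTPX staining in the red channel.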 As to conditions: BODIPY lipid droplet fluorescence, 18-24 h; for cell number change: measured here: cell count max response, cells fed with added oleic acid. In outline: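 Drosophila S3 cells loaded with oleic acid (400 uM, as added) and compounds at several concentrations; lipid droplets imaged by 488-nm laser-scanning cytometry, 500–530 nm intensity and object ratio to cell channel. Percent activity normalized to 20 uM Triacsin C.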
In general terms: Quantitative high-throughput screening tests each substance at several concentrations.

[1] abbreviates: measured here: lipid fluorescence (Fed channel) AC50, cells fed with added oleic acid.
Setting [2] is: measured here: cell number channel AC50, cells fed with added oleic acid.

Usually AC50 stands for the midpoint of the concentration-response curve, whichever way the signal moves. A lower AC50 goes with activity at low concentration. For the compound `CCn1c(SCC(=O)NC2CCCCC2)nnc1-c1cccnc1`, the cell number change was -4.97%. For the same compound, the AC50 under setting [1] is 29.1 µM [rising, single point].
As for `CCN1C(=O)[C@H]2[C@@H](c3ccc(C)cc3)N3C(=O)N(c4cccc(Br)c4)C(=O)[C@@]3(CC)[C@H]2C1=O`, the cell number change is -15.6%. In addition, the AC50 under setting [1] was 6.51 µM [rising, single point].
In the case of `COc1ccc(C)cc1C1=Nc2ccccc2C1(C)C`, the cell number change came to 11.6%. Also, under setting [1], the AC50 was 6.51 µM [rising, partial curve].
For the compound `COC(=O)C1=C(O)/C(=C\c2ccc(O)c(OC)c2)N=C1C`, the cell number change was -1.4%. For the same compound, the AC50 under setting [2] was 0.082 µM [falling, full curve, poor fit]. In addition, the half-maximal activity concentration (AC50) under setting [1] was 6.51 µM [falling, single point].
Regarding `N#Cc1ccc(C(=O)Nc2ccc([N+](=O)[O-])cc2)c(F)c1`, the cell number change is -22.7%. Moreover, the concentration at half-maximal activity (AC50) under setting [1] was 20.6 µM [falling, partial curve, poor fit].
As for `Cc1ccccc1C(=O)NCCNc1ccc([N+](=O)[O-])cc1`, the cell number change amounted to 18.5%.
In the case of `O=C1C=C(c2cccc(Cl)c2)C[C@@H](c2ccc(F)cc2)C1`, the cell number change is -9.39%. For the same compound, the AC50 under setting [1] was 0.146 µM [rising, full curve, poor fit].
On to `Cc1nc(N)sc1N=Nc1c(C)n(C)n(-c2ccccc2)c1=O`, for which the cell number change was 13.4%. For the same compound, the concentration at half-maximal activity (AC50) under setting [1] was 3.66 µM [rising, partial curve, poor fit].
Take `OC(C#CCN1CCCCC1)(c1ccccc1)c1ccccc1`: the cell number change was -21.3%.
Turning to `Cc1cc(C(=O)Nc2ccc(Nc3ccccc3)cc2)ccc1[N+](=O)[O-]`, the cell number change was -50.4%. Moreover, the AC50 under setting [2] was 16.4 µM [falling, single point].
As to `O=C(NC(NC(=S)N1CCOCC1)C(Cl)(Cl)Cl)c1cccc2ccccc12` (centres undefined), the cell number change was -34%. The AC50 under setting [2] is 7.31 µM [falling, partial curve, poor fit]. The AC50 under setting [1] was 1.84 µM [falling, full curve, poor fit].
Take `CC(/C=N/NC(=O)c1cc(-c2ccncc2)nc2ccccc12)=C\c1ccco1`: the cell number change is 0.779%.
Consider `O=C(Nc1ccccc1F)Nc1ccccc1Br`, for which the cell number change turned out to be 103%. In addition, the half-maximal activity concentration (AC50) under setting [2] is 16.4 µM [rising, partial curve].
On to `COCCNC(=O)c1cc(-c2ccc3c(c2)OCO3)on1`, for which the cell number change stood at 9.08%.
As for `CCCOc1ccc(/C=N/NC(=O)c2ccc(Cn3cc([N+](=O)[O-])cn3)o2)cc1`, the cell number change was -3.46%. Also, under setting [2], the AC50 was 0.00517 µM [falling, full curve, poor fit].
`COc1ccc(S(=O)(=O)NCC(c2cccnc2)N2CCN(c3ccccc3)CC2)cc1C` (centres undefined): the AC50 is, setting by setting: under setting [2], 2.31 µM [rising, partial curve]; under setting [1], 23.1 µM [rising, partial curve].
Consider `CN(C(=O)COC(=O)c1ccc[nH]c1=O)C1CCCCC1`, for which the cell number change is -9.34%. Under setting [2], the AC50 was 0.731 µM [rising, single point].
With `Cc1ccc(NC(=O)c2cccc(C(=O)Nc3ccc(C)c(C)c3)n2)cc1C`, the cell number change was -2.37%. Besides, the concentration at half-maximal activity (AC50) under setting [2] is 3.26 µM [rising, partial curve]. Besides, under setting [1], the AC50 was 0.164 µM [falling, full curve, poor fit].
In the case of `COc1cccc(-c2ccc(C#N)c(=O)[nH]2)c1`, the AC50 under setting [2] was 6.51 µM [rising, single point].
For the compound `CCNc1nc(NCC)nc(SCCOC(=O)COc2ccc(Cl)cc2Cl)n1`, the cell number change turned out to be 16.5%. Further, the AC50 under setting [1] was 29.1 µM [falling, single point].
In the case of `[O-][n+]1onc2c1CCC1N(O)C(c3ccccc3)CC21O` (centres undefined), the cell number change is -3.85%. In addition, the AC50 under setting [1] was 0.0651 µM [falling, full curve].
With `CCCOC(=O)C(C)n1cnc2sc(C)c(C)c2c1=O` (centres undefined), the cell number change is 46.4%. Besides, under setting [1], the AC50 was 0.58 µM [rising, single point].
For `COc1cccc(C(=O)Nc2ccccc2C(=O)N2CCCC2)c1`, the cell number change was found to be 5.82%. Also, under setting [1], the concentration at half-maximal activity (AC50) is 6.51 µM [falling, single point].
Consider `COc1cccc(NC(=O)Cn2c(=O)n(CCCC(=O)NCc3ccco3)c(=O)c3ccccc32)c1`, for which the cell number change was -3.06%.
With `CC1CC(C)CN(CCCNC(=O)c2cn(C)c3ccc(S(=O)(=O)N4CCCC4)cc3c2=O)C1` (centres undefined), the cell number change is -11.2%. The AC50 under setting [1] is 6.51 µM [falling, partial curve, poor fit].
Take `Cc1cc(C)c2c(n1)nn1c(NCCN3CCOCC3)cc(C)nc21`: the cell number change turned out to be 15.9%. In addition, the concentration at half-maximal activity (AC50) under setting [1] was 29.1 µM [rising, single point].
For the compound `Cc1ccc(S(=O)(=O)N2CCOCC2)cc1C(=O)NC1CCCC1`, the cell number change worked out at 21.2%. For the same compound, the AC50 under setting [1] is 0.13 µM [rising, full curve, poor fit].
With `O=C(Nc1ccc(F)cc1)N(CCCN1CCOCC1)Cc1cc2cc3c(cc2[nH]c1=O)OCCO3`, the half-maximal activity concentration (AC50) under setting [1] is 0.517 µM [rising, partial curve, poor fit].
The same measure, in the same setting: with `CCOC(=O)c1c(NC(=O)c2cc(C(C)C)on2)sc(C(C)=O)c1C` the figure was 5.8 µM [rising, single point].
On to `CCOC(=O)CN1C(=O)C(Sc2n[nH]c(-c3ccccc3)n2)CCc2ccccc21` (centres undefined), for which the cell number change is 33.1%. In addition, the concentration at half-maximal activity (AC50) under setting [2] is 18.4 µM [rising, single point].
As for `CN1Cc2cc(C(=O)c3cc(Cl)cc(CSc4ncccn4)c3O)cnc2NC1=O`, the cell number change is 1.99%. Further, the half-maximal activity concentration (AC50) under setting [1] is 0.92 µM [rising, full curve, poor fit].
As to `CC12CCC(C(=O)NCc3ccco3)(OC1=O)C2(C)C` (centres undefined), the cell number change was -24%. For the same compound, the AC50 under setting [1] was 1.64 µM [falling, full curve].
With `O=C(CN1C(=O)C2C3C=CC(C3)C2C1=O)Nc1ccc(F)cc1` (centres undefined), the cell number change was -18%.
Consider `CCOC(=O)C1CCCCN1Cc1ccc(-c2ccccc2)cc1` (centres undefined), for which the cell number change turned out to be 25.3%. For the same compound, under setting [1], the AC50 was 29.1 µM [rising, single point].
In the case of `CC(=O)OCC1OC(n2ccc3ccccc32)C(OC(C)=O)C(OC(C)=O)C1OC(C)=O` (centres undefined), under setting [1], the half-maximal activity concentration (AC50) was 4.11 µM [rising, single point].
Consider `Cc1c(C(=O)NNC(=O)Nc2ccc([N+](=O)[O-])cc2)oc2ccccc12`, for which the cell number change is 34.4%. Under setting [2], the AC50 is 35.5 µM [rising, single point]. For the same compound, the AC50 under setting [1] was 0.112 µM [falling, full curve, poor fit].
For the compound `COc1ccc(C(=O)N[C@H](C(=O)Nc2nc3ccccc3[nH]2)C(C)C)cc1`, the concentration at half-maximal activity (AC50) under setting [2] is 0.146 µM [falling, full curve, poor fit].
`Cc1nc(NC(CC(C)C)C(=O)O)c2nc(C)oc2n1` (centres undefined): the half-maximal activity concentration (AC50) runs as follows: under setting [2], 0.651 µM [rising, single point]; under setting [1], 0.731 µM [rising, full curve, poor fit].
